These are yes or no findings as the source states them, for the method shown. Binding seen in cells or lysates may run through a third protein. Some entries that bind do so weakly or less than the wild type.

The target of this assay is T1, RRM2 (human (endogenous in HCT116)), P31350.
T1 chain: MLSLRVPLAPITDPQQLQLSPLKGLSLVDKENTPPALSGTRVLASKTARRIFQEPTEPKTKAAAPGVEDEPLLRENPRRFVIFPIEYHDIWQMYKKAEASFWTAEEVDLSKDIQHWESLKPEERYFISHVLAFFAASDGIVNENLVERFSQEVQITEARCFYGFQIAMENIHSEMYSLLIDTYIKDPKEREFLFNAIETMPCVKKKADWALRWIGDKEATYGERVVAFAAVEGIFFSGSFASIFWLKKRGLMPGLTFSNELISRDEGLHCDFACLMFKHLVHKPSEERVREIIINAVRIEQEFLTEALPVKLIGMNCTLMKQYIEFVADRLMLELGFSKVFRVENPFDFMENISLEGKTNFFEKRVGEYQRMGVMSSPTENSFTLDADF
Put plainly: co-IP; total cellular extracts of HCT116 p53+/+ and HCT116 p53-/- cells; anti-RRM2 (anti-IgG as control) on Protein A magnetic beads, overnight at 4°C, washed three times with lysis buffer; immunoblot with anti-SIRT7. The note with it: remark: other sources report otherwise. In general terms: In western blotting, separated proteins are transferred to a membrane and probed.

B1: SIRT7, Q9NRC8 1-400 (enzyme)
chain: MAAGGLSRSERKAAERVRRLREEQQRERLRQVSRILRKAAAERSAEEGRLLAESADLVTELQGRSRRREGLKRRQEEVCDDPEELRGKVRELASAVRNAKYLVVYTGAGISTAASIPDYRGPNGVWTLLQKGRSVSAADLSEAEPTLTHMSITRLHEQKLVQHVVSQNCDGLHLRSGLPRTAISELHGNMYIEVCTSCVPNREYVRVFDVTERTALHRHQTGRTCHKCGTQLRDTIVHFGERGTLGQPLNWEAATEAASRADTILCLGSSLKVLKKYPRLWCMTKPPSRRPKLYIVNLQWTPKDDWAALKLHGKCDDVMRLLMAELGLEIPAYSRWQDPIFSLATPLRAGEEGSHSRKSLCRSREEAPPGDRGAPLSSAPILGGWFGRGCTKRTKRKKVT
For B1, the binding entry is listed as “binds”.

The values are drawn from paper PMC11183501.
